Assay [1] concerns the target T1, Arm1 (acidic residue methyltransferase, C6orf211 protein), endogenous in SK-Br-3 cell extracts (Homo sapiens) (UniProt Q9H993).
T1 sequence: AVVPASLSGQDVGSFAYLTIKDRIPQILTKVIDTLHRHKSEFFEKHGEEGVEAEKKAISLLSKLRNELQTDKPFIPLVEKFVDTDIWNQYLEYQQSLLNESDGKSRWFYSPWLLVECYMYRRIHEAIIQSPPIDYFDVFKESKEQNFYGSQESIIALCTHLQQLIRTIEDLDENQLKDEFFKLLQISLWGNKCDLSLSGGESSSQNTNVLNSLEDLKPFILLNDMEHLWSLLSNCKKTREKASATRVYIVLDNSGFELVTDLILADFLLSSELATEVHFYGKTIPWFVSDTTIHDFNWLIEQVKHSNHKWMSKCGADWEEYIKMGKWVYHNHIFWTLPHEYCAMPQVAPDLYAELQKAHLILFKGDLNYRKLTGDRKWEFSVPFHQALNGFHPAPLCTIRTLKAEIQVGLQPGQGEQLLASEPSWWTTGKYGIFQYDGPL
The assay can be described thus: SK-Br-3 cells transfected with Flag-Rev1 (FIG. 4d).

In assay [2] the target is T1, Arm1 (acidic residue methyltransferase, C6orf211 protein), endogenous in SK-Br-3 cell extracts (Homo sapiens). The experiment in a line: SK-Br-3 cells transfected with control or Flag-Rev1 plasmids, harvested 6 h after UV irradiation; detection method not described.

Results are given in words; binding and its absence hold for the method and conditions named. Some results given as binding are weak or reduced against the parent protein; the word gives no strength. Sequences can lack the tags named with a protein.

B1: Flag-Rev1 (protein, human, UniProt Q9UBZ9 1-1251, looked up, not shown: small tags and cut ends)
chain: MRRGGWRKRAENDGWETWGGYMAAKVQKLEEQFRSDAAMQKDGTSSTIFSGVAIYVNGYTDPSAEELRKLMMLHGGQYHVYYSRSKTTHIIATNLPNAKIKELKGEKVIRPEWIVESIKAGRLLSYIPYQLYTKQSSVQKGLSFNPVCRPEDPLPGPSNIAKQLNNRVNHIVKKIETENEVKVNGMNSWNEEDENNDFSFVDLEQTSPGRKQNGIPHPRGSTAIFNGHTPSSNGALKTQDCLVPMVNSVASRLSPAFSQEEDKAEKSSTDFRDCTLQQLQQSTRNTDALRNPHRTNSFSLSPLHSNTKINGAHHSTVQGPSSTKSTSSVSTFSKAAPSVPSKPSDCNFISNFYSHSRLHHISMWKCELTEFVNTLQRQSNGIFPGREKLKKMKTGRSALVVTDTGDMSVLNSPRHQSCIMHVDMDCFFVSVGIRNRPDLKGKPVAVTSNRGTGRAPLRPGANPQLEWQYYQNKILKGKAADIPDSSLWENPDSAQANGIDSVLSRAEIASCSYEARQLGIKNGMFFGHAKQLCPNLQAVPYDFHAYKEVAQTLYETLASYTHNIEAVSCDEALVDITEILAETKLTPDEFANAVRMEIKDQTKCAASVGIGSNILLARMATRKAKPDGQYHLKPEEVDDFIRGQLVTNLPGVGHSMESKLASLGIKTCGDLQYMTMAKLQKEFGPKTGQMLYRFCRGLDDRPVRTEKERKSVSAEINYGIRFTQPKEAEAFLLSLSEEIQRRLEATGMKGKRLTLKIMVRKPGAPVETAKFGGHGICDNIARTVTLDQATDNAKIIGKAMLNMFHTMKLNISDMRGVGIHVNQLVPTNLNPSTCPSRPSVQSSHFPSGSYSVRDVFQVQKAKKSTEEEHKEVFRAAVDLEISSASRTCTFLPPFPAHLPTSPDTNKAESSGKWNGLHTPVSVQSRLNLSIEVPSPSQLDQSVLEALPPDLREQVEQVCAVQQAESHGDKKKEPVNGCNTGILPQPVGTVLLQIPEPQESNSDAGINLIALPAFSQVDPEVFAALPAELQRELKAAYDQRQRQGENSTHQQSASASVPKNPLLHLKAAVKEKKRNKKKKTIGSPKRIQSPLNNKLLNSPAKTLPGACGSPQKLIDGFLKHEGPPAEKPLEELSASTSGVPGLSSLQSDPAGCVRPPAPNLAGAVEFNDVKTLLREWITTISDPMEEDILQVVKYCTDLIEEKDLEKLDLVIKYMKRLMQQSVESVWNMAFDFILDNVQVVLQQTYGSTLKVT
On to B1, for which the binding entry in assay [1] and in assay [2] was “binds” throughout.

(Values after US20150065444A1.)
